# Assay results: PubChem BioAssay AID1259354 (Paczesny and Yang Labs, IUPUI and University of Michigan, 2018)
# Amino acid sequences for entries named in this document (tags omitted). A change or cut given only in a name is not applied to a line headed by its entry.
# UniProt Q01638: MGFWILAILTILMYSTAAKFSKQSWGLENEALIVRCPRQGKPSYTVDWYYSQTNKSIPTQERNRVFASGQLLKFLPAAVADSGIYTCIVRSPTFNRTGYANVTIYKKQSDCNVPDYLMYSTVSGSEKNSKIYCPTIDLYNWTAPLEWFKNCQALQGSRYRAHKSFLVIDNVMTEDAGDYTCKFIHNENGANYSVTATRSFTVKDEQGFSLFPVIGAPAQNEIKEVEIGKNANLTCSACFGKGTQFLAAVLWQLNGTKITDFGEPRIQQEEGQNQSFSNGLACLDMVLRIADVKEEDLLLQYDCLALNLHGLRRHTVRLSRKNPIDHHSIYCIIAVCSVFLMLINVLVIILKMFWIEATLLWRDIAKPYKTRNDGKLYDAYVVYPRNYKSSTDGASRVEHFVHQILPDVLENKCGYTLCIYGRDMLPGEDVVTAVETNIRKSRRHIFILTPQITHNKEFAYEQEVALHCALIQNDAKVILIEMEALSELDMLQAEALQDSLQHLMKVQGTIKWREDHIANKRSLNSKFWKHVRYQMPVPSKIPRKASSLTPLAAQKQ
# Several values for one entry are separate records, joined by “and”; a condition that tells them apart may be missing. Equal entries are not always repeated. The whole screen tested about 78,000 compounds, of which about 1,800 (2.3%) were called active. The shares of active, inactive and inconclusive entries below differ from those in the screen. Rule as the data show it: active = inhibition above about 30%; inconclusive = mostly about 10% to 28%; inactive = weaker than that.
# Target: Interleukin-1 receptor-like 1 (Homo sapiens) (UniProt Q01638)
# Assay: blocks human ST2 binding to IL-33, primary screen, biochemical, AlphaLISA (AID 1259354)
# Details: AlphaLISA ST2-Fc/biotin-IL-33 interaction, 1 h; at 17 µM, hits give high values
row,Structure (SMILES),inhibition
1,CNC(=O)c1ccc(Cn2c(=O)c3cc(OC)c(OC)cc3n(CC(=O)Nc3ccccc3C)c2=O)cc1,inconclusive: 14%
2,CN1CCC(n2cnc(-c3ccccc3)c2-c2cccc3cccnc23)CC1,active: 30%
3,Cc1cc(NC(=O)c2ccc(N3C(=O)CCC3=O)cc2)nc2c1c(=O)oc1ccccc12,inactive
4,CC1=C(C(=O)Nc2cccnc2)C(c2ccc(C)cc2)n2nc(SCc3ccccc3)nc2N1 (configuration not stated),inconclusive: 22%
5,Cc1cc(C)n2cc(CSc3nc4ccccc4[nH]3)nc2n1,inconclusive: 10%
6,CCC1=NN(C(=O)c2ccccc2O)C(O)(c2ccc(Br)cc2)C1 (configuration not stated),inconclusive: 24%
7,COCCn1cc(C(=O)N2CCN(c3ccc(OC)cc3)CC2)c2c3ccccc3n(C)c2c1=O,inconclusive: 11%
8,CCCC12CN3CC(CCC)(CN(C1)C3c1ccc(Cl)cc1)C2=O (configuration not stated),inactive
9,Cc1sc2nc3c(C(=O)NCc4cccs4)cccn3c(=O)c2c1C,inactive
10,O=C(Nc1ccccc1O)c1cccc(N2C(=O)c3ccc([N+](=O)[O-])cc3C2=O)c1,inconclusive: 13%
11,COc1ccccc1OCC(=O)Nc1ccc(OCC(=O)O)cc1,inactive
12,CCNS(=O)(=O)c1cccc2nonc12,inconclusive: 10%
13,C#CCOc1c(Br)cc(C=O)cc1OCC,inactive
14,Cc1cc(CC(C)NC(=O)/C=C/c2ccccc2)n[nH]1 (configuration not stated),inactive
15,COc1cc(C(c2c(C)[nH][nH]c2=O)c2c(C)[nH][nH]c2=O)ccc1O,inconclusive: 10%
16,COc1ccccc1OC1CN(C2CCN(C(=O)c3ccccc3)CC2)C1,inactive
17,CCOc1ccc(NC(=O)Cc2ccc(OC)cc2)cc1,inactive
18,CC1CC(C)CN(C(=O)c2cc3cc4ccc(Cl)cc4nc3o2)C1 (configuration not stated),inconclusive: 26%
19,Cc1ccc2nc(-c3c[nH]c4ccccc34)c(NC3CCCCC3)n2c1,inconclusive: 13%
20,O=S(=O)(N1CCCC1)N1CCC2(CCOCC2)CC1,inconclusive: 28%
21,CCc1nc2c(cnn2-c2ccc(C)c(C)c2)c(=O)n1-c1ccc(OC)cc1,inconclusive: 11%
22,COCC(=O)Nc1ccccc1-c1cccc(Cl)c1Cl,inconclusive: 23%
23,Cc1c(Cl)c([N+](=O)[O-])nn1CCCC(=O)N(Cc1ccccc1)Cc1ccccc1,inconclusive: 18% and inconclusive: 15%
24,CC1CCc2c(sc(NC(=O)c3ccc(Br)o3)c2C(N)=O)C1 (configuration not stated),inactive

row,Structure (SMILES),inhibition
1,O=C(O)C[C@@H]1CCN(C(=O)Cc2cccs2)C[C@@H]1CCN1CCOCC1,active: 54%
2,Cc1cc([N+](=O)[O-])ccc1NC(=O)C1C2C=CC(C2)C1C(=O)O (configuration not stated),inactive
3,COc1ccc(C(=O)Nc2cc(Cl)ccc2Cl)cc1[N+](=O)[O-],inactive
4,O=C(Nc1ccccc1)c1cccc(S(=O)(=O)NCc2ccccc2)c1,inactive
5,COc1ccc(OC)c(Nc2ncnc3nc[nH]c23)c1,inconclusive: 10%
6,O=C(c1ccc(F)cc1)c1c[nH]c2ccc(Cl)cc2c1=O,inconclusive: 10%
7,Cc1cc(C)n(CCNC(=O)COc2c(C)ccc(C)c2C)c(=O)n1,inactive
8,CCn1ccnc1CN(C)Cc1ccc(-c2nc(C(F)(F)F)c(C)c(=O)[nH]2)cc1,inactive
9,CC(=O)N(C)c1ccc(N=C2C(=O)Nc3cc(Br)c(C)cc32)cc1,inconclusive: 19%
10,Cc1cc(NC(=O)CSc2nc3c(c(=O)n2-c2ccccc2)SCC3)no1,inactive
11,CNCC(=O)NCc1csc2c1CCCC2,inconclusive: 12%
12,COc1ccc(CN2CCCC2)cc1Oc1nccnc1OC,inconclusive: 11%
13,Cc1ccc(-n2c(=O)c3c4c(sc3n3c(C)nnc23)CN(Cc2ccccc2)CC4)cc1,inconclusive: 17%
14,O=C(c1ccc(-c2ccccc2)cc1)C1CCCN(C(=O)CCc2ccncc2)C1 (configuration not stated),inactive
15,COc1ccc(NC(=O)C2CCN(c3ccc(-c4cccs4)nn3)CC2)c(OC)c1,inactive
16,COCCn1c(CNS(=O)(=O)c2ccc(F)cc2)nc2cccnc21,inconclusive: 14%
17,Cc1cccnc1NC(=O)c1cc2c(=O)oc3ccccc3c2s1,inconclusive: 12%
18,O=C1CC2CS(=O)(=O)CC2N1c1cccc(Cl)c1 (configuration not stated),inactive
19,O=C(c1cc2ccccc2o1)N1CCN=C1SCc1ccccc1F,inconclusive: 25%
20,CCCCOc1ccc(S(=O)(=O)N2CCN(c3nc(C)cc(N4CCN(C)CC4)n3)CC2)cc1,inconclusive: 16%
21,O=C(CC1COCCN1)N1CCC(OCc2cccnc2)CC1 (configuration not stated),inconclusive: 10%
22,CC(=O)Nc1ccc(CN2CCC(n3nc(C)cc3C)C2)cc1 (configuration not stated),inconclusive: 10%
23,C(=N/OCc1nc2c3c4c(sc3ncn2n1)CCCCC4)/c1ccccc1,inconclusive: 24%
